# In the supplement of paper PMC7666118:
# Amino acid sequences for entries named in this document (tags omitted). A change or cut given only in a name is not applied to a line headed by its entry.
# UniProt Q68CR1: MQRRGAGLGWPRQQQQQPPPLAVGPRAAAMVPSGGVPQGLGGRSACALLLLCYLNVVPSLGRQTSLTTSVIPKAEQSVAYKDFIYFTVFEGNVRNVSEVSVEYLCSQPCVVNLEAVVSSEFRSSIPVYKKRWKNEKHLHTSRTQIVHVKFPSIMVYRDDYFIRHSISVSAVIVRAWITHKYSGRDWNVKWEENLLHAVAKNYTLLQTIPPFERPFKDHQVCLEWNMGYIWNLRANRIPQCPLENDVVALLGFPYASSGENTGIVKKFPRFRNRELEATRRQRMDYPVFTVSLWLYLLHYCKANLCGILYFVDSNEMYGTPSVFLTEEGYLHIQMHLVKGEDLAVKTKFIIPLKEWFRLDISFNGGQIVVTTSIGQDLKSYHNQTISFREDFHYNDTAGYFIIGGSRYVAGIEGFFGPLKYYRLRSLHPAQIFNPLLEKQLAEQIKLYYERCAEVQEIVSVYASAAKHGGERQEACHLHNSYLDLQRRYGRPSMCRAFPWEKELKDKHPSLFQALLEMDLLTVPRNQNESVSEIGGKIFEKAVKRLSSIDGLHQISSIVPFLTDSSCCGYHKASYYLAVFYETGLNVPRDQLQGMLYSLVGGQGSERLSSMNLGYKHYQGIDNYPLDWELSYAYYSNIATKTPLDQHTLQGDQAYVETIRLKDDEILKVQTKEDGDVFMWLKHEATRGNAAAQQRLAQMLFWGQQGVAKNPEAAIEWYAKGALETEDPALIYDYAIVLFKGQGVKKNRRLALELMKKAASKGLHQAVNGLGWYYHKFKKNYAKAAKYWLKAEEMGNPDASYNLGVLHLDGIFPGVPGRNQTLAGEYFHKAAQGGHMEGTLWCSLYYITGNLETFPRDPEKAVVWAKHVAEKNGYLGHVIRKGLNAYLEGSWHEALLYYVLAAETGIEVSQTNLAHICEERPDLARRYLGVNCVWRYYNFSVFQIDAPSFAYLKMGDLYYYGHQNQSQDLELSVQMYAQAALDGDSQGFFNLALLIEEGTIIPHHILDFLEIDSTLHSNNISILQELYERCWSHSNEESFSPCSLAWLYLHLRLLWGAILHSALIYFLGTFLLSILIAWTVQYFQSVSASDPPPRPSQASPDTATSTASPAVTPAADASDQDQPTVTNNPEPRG
# UniProt Q15046, whole entry, looked up: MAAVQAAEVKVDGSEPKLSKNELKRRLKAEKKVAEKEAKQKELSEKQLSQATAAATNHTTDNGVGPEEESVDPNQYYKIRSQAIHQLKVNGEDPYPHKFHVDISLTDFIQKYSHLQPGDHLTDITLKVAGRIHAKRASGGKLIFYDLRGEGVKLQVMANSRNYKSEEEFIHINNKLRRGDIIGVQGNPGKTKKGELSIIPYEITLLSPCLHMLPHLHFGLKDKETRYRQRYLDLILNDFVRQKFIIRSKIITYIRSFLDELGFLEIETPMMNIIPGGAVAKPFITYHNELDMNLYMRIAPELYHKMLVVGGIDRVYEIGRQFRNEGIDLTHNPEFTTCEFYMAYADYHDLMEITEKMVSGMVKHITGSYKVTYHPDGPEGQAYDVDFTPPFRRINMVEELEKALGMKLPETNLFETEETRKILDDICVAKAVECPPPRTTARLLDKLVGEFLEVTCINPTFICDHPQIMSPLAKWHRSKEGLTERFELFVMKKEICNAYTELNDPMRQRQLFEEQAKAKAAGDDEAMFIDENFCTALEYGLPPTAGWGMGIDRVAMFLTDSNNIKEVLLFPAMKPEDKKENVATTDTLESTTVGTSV
# UniProt Q9BW62: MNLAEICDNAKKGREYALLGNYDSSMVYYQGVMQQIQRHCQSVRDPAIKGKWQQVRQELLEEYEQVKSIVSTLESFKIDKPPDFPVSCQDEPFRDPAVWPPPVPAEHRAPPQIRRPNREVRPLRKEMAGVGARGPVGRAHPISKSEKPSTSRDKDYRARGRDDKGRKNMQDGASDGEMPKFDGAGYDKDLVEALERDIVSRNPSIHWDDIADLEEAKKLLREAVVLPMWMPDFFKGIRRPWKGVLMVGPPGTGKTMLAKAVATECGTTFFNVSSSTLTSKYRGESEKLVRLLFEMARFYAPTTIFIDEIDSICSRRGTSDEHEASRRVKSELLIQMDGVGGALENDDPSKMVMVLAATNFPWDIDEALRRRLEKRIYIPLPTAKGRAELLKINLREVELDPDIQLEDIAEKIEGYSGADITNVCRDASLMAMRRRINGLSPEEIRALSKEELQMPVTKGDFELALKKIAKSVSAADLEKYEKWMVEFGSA
# UniProt Q8N163, whole entry: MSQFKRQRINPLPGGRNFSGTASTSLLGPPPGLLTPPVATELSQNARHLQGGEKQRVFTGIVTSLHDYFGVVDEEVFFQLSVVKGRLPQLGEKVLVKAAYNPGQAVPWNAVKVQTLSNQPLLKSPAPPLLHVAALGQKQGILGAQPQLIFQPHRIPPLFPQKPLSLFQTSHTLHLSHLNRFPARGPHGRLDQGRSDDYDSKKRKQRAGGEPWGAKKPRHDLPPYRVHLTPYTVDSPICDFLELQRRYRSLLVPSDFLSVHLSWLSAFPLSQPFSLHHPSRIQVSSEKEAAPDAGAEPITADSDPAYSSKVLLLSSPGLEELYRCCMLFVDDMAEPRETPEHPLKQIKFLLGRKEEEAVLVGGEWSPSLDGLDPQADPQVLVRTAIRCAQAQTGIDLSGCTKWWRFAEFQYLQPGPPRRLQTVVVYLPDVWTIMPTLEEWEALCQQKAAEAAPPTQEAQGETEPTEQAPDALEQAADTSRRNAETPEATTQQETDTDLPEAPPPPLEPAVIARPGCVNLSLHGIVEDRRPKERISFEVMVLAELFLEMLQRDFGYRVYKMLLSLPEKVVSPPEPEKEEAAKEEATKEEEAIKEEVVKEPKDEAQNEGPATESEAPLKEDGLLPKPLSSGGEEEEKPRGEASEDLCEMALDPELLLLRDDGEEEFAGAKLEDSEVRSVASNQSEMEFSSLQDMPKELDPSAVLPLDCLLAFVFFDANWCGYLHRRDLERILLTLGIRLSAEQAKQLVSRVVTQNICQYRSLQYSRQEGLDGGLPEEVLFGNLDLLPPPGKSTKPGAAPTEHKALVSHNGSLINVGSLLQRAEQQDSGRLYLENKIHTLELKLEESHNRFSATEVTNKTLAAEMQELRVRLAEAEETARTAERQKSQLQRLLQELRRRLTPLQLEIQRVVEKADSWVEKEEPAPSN
# UniProt Q8N5M9: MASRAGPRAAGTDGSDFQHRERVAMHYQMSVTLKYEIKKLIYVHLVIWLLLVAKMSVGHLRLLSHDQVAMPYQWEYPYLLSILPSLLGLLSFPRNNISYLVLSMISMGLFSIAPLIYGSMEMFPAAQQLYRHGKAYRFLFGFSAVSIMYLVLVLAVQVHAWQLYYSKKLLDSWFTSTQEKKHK
# UniProt Q9H9L3: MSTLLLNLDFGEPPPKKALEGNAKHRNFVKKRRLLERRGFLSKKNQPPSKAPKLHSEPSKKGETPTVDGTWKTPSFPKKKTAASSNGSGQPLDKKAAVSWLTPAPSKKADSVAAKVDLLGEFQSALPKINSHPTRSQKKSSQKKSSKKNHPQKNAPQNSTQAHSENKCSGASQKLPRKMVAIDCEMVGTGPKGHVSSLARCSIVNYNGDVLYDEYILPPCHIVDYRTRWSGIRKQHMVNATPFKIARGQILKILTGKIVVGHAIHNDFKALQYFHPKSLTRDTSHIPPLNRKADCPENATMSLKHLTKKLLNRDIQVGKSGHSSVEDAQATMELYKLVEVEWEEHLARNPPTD
# UniProt Q9HCM7, whole entry: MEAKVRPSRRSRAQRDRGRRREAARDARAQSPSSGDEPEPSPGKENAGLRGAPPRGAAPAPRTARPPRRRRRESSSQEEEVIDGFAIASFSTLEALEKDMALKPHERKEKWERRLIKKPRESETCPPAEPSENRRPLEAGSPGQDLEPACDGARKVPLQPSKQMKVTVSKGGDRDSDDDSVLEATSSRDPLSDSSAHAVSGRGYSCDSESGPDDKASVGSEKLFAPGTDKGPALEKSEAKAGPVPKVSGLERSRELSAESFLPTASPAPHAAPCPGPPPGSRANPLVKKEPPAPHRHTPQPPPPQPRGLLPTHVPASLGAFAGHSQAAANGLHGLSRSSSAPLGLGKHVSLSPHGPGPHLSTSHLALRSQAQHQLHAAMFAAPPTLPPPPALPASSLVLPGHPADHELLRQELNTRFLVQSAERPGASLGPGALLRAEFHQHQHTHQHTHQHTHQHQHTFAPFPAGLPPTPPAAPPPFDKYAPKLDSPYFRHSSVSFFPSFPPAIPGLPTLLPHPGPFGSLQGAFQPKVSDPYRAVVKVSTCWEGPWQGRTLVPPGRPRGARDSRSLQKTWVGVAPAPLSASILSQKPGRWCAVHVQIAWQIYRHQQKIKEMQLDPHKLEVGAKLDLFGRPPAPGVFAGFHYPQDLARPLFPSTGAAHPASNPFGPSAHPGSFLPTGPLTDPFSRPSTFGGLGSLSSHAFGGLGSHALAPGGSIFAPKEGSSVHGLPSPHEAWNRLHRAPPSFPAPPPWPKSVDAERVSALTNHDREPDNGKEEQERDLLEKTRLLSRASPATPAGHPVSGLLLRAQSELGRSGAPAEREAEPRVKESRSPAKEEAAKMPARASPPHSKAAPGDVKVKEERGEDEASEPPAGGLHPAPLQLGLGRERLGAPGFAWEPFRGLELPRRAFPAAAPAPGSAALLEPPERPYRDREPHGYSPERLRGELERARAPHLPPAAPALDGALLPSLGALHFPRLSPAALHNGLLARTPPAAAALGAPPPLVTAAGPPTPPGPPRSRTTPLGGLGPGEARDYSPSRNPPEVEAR
# UniProt P61604, whole entry: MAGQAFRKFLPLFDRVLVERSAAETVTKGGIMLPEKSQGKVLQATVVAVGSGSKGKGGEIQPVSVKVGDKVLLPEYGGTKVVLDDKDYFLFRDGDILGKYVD
# UniProt Q8N6R0: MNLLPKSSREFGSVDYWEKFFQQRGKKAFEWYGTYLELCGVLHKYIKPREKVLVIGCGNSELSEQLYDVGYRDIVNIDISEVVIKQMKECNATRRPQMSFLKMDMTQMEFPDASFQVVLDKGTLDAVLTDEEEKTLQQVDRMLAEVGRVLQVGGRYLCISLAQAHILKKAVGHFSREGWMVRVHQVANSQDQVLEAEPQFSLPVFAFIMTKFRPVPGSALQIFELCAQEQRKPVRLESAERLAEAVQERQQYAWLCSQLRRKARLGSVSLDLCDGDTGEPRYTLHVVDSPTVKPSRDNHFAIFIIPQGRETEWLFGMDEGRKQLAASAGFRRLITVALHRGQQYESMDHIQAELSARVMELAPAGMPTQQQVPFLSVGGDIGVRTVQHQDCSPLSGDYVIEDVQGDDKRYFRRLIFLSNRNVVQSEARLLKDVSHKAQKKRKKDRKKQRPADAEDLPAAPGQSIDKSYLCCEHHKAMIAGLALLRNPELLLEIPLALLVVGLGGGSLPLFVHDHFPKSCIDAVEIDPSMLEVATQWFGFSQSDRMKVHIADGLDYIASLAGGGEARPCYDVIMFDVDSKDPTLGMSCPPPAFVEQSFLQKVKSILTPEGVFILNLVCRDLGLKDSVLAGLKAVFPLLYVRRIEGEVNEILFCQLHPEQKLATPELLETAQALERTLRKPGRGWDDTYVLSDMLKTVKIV
# UniProt Q5TCX8: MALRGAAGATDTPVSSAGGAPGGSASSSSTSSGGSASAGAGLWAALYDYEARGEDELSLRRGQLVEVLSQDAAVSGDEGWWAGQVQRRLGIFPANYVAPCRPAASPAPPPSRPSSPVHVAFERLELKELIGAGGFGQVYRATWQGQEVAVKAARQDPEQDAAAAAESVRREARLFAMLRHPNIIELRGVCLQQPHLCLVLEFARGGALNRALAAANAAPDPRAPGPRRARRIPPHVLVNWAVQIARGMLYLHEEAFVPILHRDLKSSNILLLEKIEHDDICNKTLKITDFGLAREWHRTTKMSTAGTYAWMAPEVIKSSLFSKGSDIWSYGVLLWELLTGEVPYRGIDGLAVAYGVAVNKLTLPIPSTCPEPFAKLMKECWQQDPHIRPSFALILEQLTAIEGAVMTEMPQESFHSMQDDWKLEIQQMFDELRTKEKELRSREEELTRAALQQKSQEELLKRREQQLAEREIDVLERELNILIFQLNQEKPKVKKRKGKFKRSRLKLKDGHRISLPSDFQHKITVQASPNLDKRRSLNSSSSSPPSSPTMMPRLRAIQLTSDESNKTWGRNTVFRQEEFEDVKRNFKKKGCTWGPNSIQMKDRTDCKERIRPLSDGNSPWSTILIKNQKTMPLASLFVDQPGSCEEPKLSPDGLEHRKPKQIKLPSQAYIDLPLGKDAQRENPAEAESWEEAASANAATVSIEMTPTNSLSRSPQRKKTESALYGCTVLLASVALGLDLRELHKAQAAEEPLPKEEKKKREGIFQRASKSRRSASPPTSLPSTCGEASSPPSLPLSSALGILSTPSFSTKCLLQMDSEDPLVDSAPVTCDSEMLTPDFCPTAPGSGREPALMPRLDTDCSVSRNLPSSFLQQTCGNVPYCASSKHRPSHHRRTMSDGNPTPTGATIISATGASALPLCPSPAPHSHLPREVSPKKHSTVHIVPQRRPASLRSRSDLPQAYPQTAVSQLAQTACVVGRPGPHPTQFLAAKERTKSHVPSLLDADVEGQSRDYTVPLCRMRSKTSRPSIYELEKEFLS
# Some of the results follow.
# Compound: COc1ccc(Cn2ccc3cc(C)c(C(=O)NO)cc32)cc1
# Test: dose-dependent thermal stabilisation call (2D-TPP, DLPTP, 10% FDR) (binary (1 = stabilised)); higher = stabilised by the compound
# Details: system: HL-60 intact cells; concentration range 0.04-10 µM
# Experimental: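 2D thermal proteome profiling in intact HL-60 cells treated with BRD-3811 (0, 0.04, 0.29, 2, 10 uM) for 90 min at 37 C, then heated 3 min at one of 12 temperatures (42-63.9 C). Soluble protein was quantified by TMT10 MS. The value is the DLPTP call of the paper: dose-dependent thermal stabilisation over all temperatures at 10% FDR (F-test of a dose-response against a flat model); one experiment, one call per tested protein.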
row,Target,dose-dependent thermal stabilisation call
1,IFT57 (UniProt Q9NWB7),inactive: 0
2,IMPAD1 (UniProt Q9NX62),inactive: 0
3,KIAA0391 (UniProt O15091),inactive: 0
4,KIAA0746 (UniProt Q68CR1),inactive: 0
5,IDH1 (UniProt O75874),inactive: 0
6,HUS1 (UniProt O60921),inactive: 0
7,IPO8 (UniProt O15397),inactive: 0
8,KARS (UniProt Q15046),inactive: 0
9,KATNAL1 (UniProt Q9BW62),inactive: 0
10,KIF22 (UniProt Q14807),inactive: 0
11,ITM2A (UniProt O43736),inactive: 0
12,KIAA1715 (UniProt Q9C0E8),inactive: 0
13,KLC2 (UniProt Q9H0B6),inactive: 0
14,IMPA1 (UniProt P29218),inactive: 0
15,KIAA1244 (UniProt Q5TH69),inactive: 0
16,KBTBD8 (UniProt Q8NFY9),inactive: 0
17,KIAA1967 (UniProt Q8N163),inactive: 0
18,KLHL12 (UniProt Q53G59),inactive: 0
19,KIAA1430 (UniProt Q9P2B7),inactive: 0
20,KIAA1704 (UniProt Q8IXQ4),inactive: 0

# Some of the entries above in another layout:
row | Target | dose-dependent thermal stabilisation call
6 | HUS1 (UniProt O60921) | inactive: 0
7 | IPO8 (UniProt O15397) | inactive: 0

# Continuation:

row,Target,dose-dependent thermal stabilisation call
1,KIAA0892 (UniProt Q9Y6X3),inactive: 0
2,KRAS (UniProt P01116),inactive: 0
3,JAGN1 (UniProt Q8N5M9),inactive: 0
4,KIAA1609 (UniProt Q6P9B6),inactive: 0
5,ITSN1 (UniProt Q15811),inactive: 0
6,KIAA1033 (UniProt Q2M389),inactive: 0
7,KDELC2 (UniProt Q7Z4H8),inactive: 0
8,IRF2 (UniProt P14316),inactive: 0
9,ISG20L2 (UniProt Q9H9L3),inactive: 0
10,KDELR1 (UniProt P24390),inactive: 0
11,KIAA1632 (UniProt Q9HCE0),inactive: 0
12,ITFG2 (UniProt Q969R8),inactive: 0
13,KIAA1545 (UniProt Q9HCM7),inactive: 0
14,HSPE1 (UniProt P61604),inactive: 0
15,KIAA0859 (UniProt Q8N6R0),inactive: 0
16,KIAA1804 (UniProt Q5TCX8),inactive: 0
17,KIF13B (UniProt Q9NQT8),inactive: 0
18,KLHL36 (UniProt Q8N4N3),inactive: 0
19,KIAA0652 (UniProt O75143),inactive: 0
20,KIF4A (UniProt O95239),inactive: 0
